Reference: PubChem BioAssay AID1259415 (National Center for Advancing Translational Sciences (NCATS), 2018)
Values joined by “and” are separate entries in the source; they are usually repeats but may differ in a detail not shown here. Identical values can stand only once. Out of some 410,000 compounds screened, about 18,000 (4.4%) were called active. The shares of active, inactive and inconclusive entries below differ from those in the screen. Rule as the data show it: active = activity change below about -60%; inconclusive = no clear call, values can overlap the other calls; inactive = above about -39%.

Assay: qHTS Assay for inhibitors of the human cytomegalovirus (HCMV)
Conditions: HFF cells, HCMV-luciferase reporter, 72 h; at 57.5 µM; active compounds read low
Procedure, shortened: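 Screen run at 2 compound doses on HFFs infected with reporter HCMV, MOI 1 PFU/cell. Luciferase activity from cell lysates at 72 h post infection gave inhibition relative to buffer-only and Salinomycin wells.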
% is scaled to controls: 0 for no effect and ±100 for the full control effect.

| SMILES | activity change, negative = inhibition |
| --- | --- |
| COc1ccc(CCNC(=O)c2ccc3c(c2)c(C)c(C)n3Cc2ccccc2)c(OC)c1OC | inactive: 0% |
| Cc1ccc(N2C(=O)C3C4C=CC(CC4)C3C2=O)c([N+](=O)[O-])c1 (stereo unspecified) | inconclusive: -52.1% |
| O=C(NCc1ccc(F)cc1)C(Cc1ccccc1)NS(=O)(=O)c1cccs1 (stereo unspecified) | inconclusive: -48.9% |
| N#Cc1cc(-c2ccc(Cl)cc2)cn(Cc2c(Cl)cccc2Cl)c1=O | active: -88.6% |
| O=c1[nH]c(C2CCCN(S(=O)(=O)c3ccccc3Cl)C2)nc2c1nnn2Cc1ccc(OC(F)(F)F)cc1 (stereo unspecified) | inactive: 0.0785% |
| Cc1ccc(S(=O)(=O)Nc2cccc(-n3cnnn3)c2)cc1 | inconclusive: -50.7% |
| Cc1oc(-c2ccccc2F)nc1CSCC(=O)NC1CCCC1 | inactive: -34.2% |
| CC(C)C(=O)Nc1ccc2c(c1)nc(CCN1CCN(c3ccccn3)CC1)n2C | inconclusive: -49.7% |
| CNc1ccc(/C=C(\C#N)C(=O)Nc2ccccn2)cc1[N+](=O)[O-] | inactive: -9.14% |
| O=C1NC(=O)C(=Cc2ccc(Cl)c(Cl)c2)S1 | inactive: 60.9% |
| CCC(C)Nc1nc(-c2ccc3c(c2)NC(=O)CO3)cs1 (stereo unspecified) | inactive: 3.18% |
| O=C(Nc1ccccc1)N1CCN(Cc2ccc(Cl)cc2)CC1 | inactive: -31.7% |
| O=C(Nc1ccc(N2CCOCC2)cc1)c1cnsn1 | active: -73.4% |
| c1ccc(CCN(Cc2ccccc2)C2CCN(C3CCCC3)CC2)cc1 | inactive: -36.1% |
| O=C(CSc1nc2ccccc2c(=O)n1CCCN1CCOCC1)NC12CC3CC(CC(C3)C1)C2 | inconclusive: -46.5% |
| Cc1cccc(C(=O)N(Cc2ccco2)Cc2ccccc2F)c1 | inactive: -38.6% |
| Cc1ccc([C@H]2C(C(=O)O)=CC[C@@H](c3ccc(C)cc3)N2S(=O)(=O)c2ccccc2C)cc1 | inactive: -10.8% |
| O=C(OCc1ccccc1)N1CCC2CC1c1ccc(-c3cccc(F)c3)cc12 (stereo unspecified) | inactive: -5.72% |
| CN(C(=O)c1ccccn1)c1nnc(-c2cccnc2)s1 | inactive: 7.06% |
| Cc1c(/C(O)=C2/C(=O)C(=O)N(CCN(C)C)C2c2ccc(C(C)C)cc2)cnn1-c1ccccc1 (stereo unspecified) | inactive: 22.5% |
| N#Cc1ccc(NC(=O)Nc2ccc(Oc3ccc(NC(=O)Nc4ccc(C#N)cc4)cc3)cc2)cc1 | active: -82.4% |
| CCOc1ccc(-n2c(SCc3ccc([N+](=O)[O-])cc3)nnc2-c2ccccc2)cc1 | inconclusive: -41.9% |

| SMILES | activity change, negative = inhibition |
| --- | --- |
| Cc1cc(C(=O)COc2ccc(Br)cc2F)c(C)n1C1CC1 | inconclusive: -45.6% |
| Cc1cc(C)cc(OCC(=O)N/N=C/c2ccc([N+](=O)[O-])o2)c1 | inconclusive: -45.8% |
| COc1cc(/C=N/NC(=O)c2nnn(-c3nonc3N)c2C)ccc1OCc1ccc(Cl)cc1 | active: -60.5% |
| N#Cc1ccccc1S(=O)(=O)N1CCC(C(=O)NCc2ccccc2CN2CCCC2)CC1 | inactive: 2.91% |
| O=C(COc1ccc(Br)cc1Cl)NC1CCCCC1 | inconclusive: -44.3% |
| COc1ccc(/C=N/NC(=O)c2cc3cc(OC)c(OC)cc3[nH]2)cc1 | inconclusive: -58.9% |
| Cc1ccnc(NC(=O)CCCc2c[nH]c3ccccc23)c1 | active: -101% |
| Cc1cc(NC(=O)c2ccco2)c(=O)n(Cc2c(F)cccc2Cl)c1 | inconclusive: -48.4% |
| O=S(=O)(NC1CCCCC1Nc1ccccc1)c1ccccc1 (stereo unspecified) | inconclusive: -50.4% |
| Oc1ccccc1/C=N/NC(=S)NC1CC2CCC1C2 (stereo unspecified) | inconclusive: -49.4% |
| Cc1ccc(-c2cc(-c3coc4ccccc4c3=O)c3c(n2)-c2ccccc2OC3)cc1 | inactive: -1.29% |
| COc1ccc(C(CC(=O)c2ccccc2)S(=O)(=O)c2ccc(C)cc2)cc1 (stereo unspecified) | active: -105% |
| CCCCOc1ccc(C(O)C(CN2CCOCC2)c2ccccc2)cc1 (stereo unspecified) | inconclusive: 0% |
| COc1cc(Cn2c3ccc(NC(=O)NCCc4ccccc4)cc3c(=O)n2C)ccc1F | active: -68% |
| O=[N+]([O-])c1cccc(/C=N/Nc2nc(NCc3ccccc3)nc(N3CCOCC3)n2)c1O | inactive: -26.1% |
| CCOc1ccc(C2C(C(=O)c3ccc(C)o3)=C(O)C(=O)N2CCCN(CC)CC)cc1 (stereo unspecified) | inconclusive: -42.7% |
| CC(OC(=O)CCCNC(=O)c1ccc(Cl)cc1)C(=O)N(C)Cc1ccccc1 (stereo unspecified) | inconclusive: -47.4% |
| Cc1ccc(C2C3=C(CC(C)(C)CC3=O)NC3=C2C(=O)c2ccccc23)cc1 (stereo unspecified) | active: -64.6% |
| CC(C)Nc1nc(NCc2ccccc2)c2sccc2n1 | inconclusive: -57.3% |
| CC(=O)NC1CCN(CC(=O)Nc2cccc([N+](=O)[O-])c2)CC1 | inconclusive: -42.3% |
| CC(C)(C)n1nnnc1C(c1cccnc1)N(Cc1ccccc1)Cc1ccco1 (stereo unspecified) | inactive: -21.1% |
| COc1cccc(CNC(=O)CCn2c(=O)c3cccn3c3cccnc32)c1OC | inconclusive: -57.2% |

| SMILES | activity change, negative = inhibition |
| --- | --- |
| CCOC(=O)C1=C(c2ccccc2)Nc2ncnn2C1c1ccccn1 (stereo unspecified) | inactive: -14.7% |
| Cc1ccc(C(=O)NCCc2cccs2)cc1 | active: -61% |
| COc1ccc(N(CC(=O)Nc2ccc3c(c2)OCCO3)S(=O)(=O)c2cccc(C)c2)cc1 | active: -76.9% |
| CC(C)(C)NC(=O)NC(=O)COC(=O)c1nc(-c2ccccc2)n(-c2cccc(C(F)(F)F)c2)n1 | inconclusive: -40.4% |
| COC(=O)c1c(NC(=O)CSc2nc3ccccc3c(=O)n2-c2ccccc2)sc(C)c1C | inactive: 28.2% |
| CC(C)CC(=O)NC(=S)Nc1ccc(NC(=O)c2ccco2)cc1 | inconclusive: -47.1% |
| CCOC(=O)COn1c(=O)c(-c2ccc(Br)cc2)[n+]([O-])c2ccccc21 | inactive: 38.6% |
| O=[N+]([O-])c1ccc(Sc2ncccn2)c([N+](=O)[O-])c1 | active: -97.2% |
| COc1cccc(OCC(Cn2cnc3ccccc32)OC(C)=O)c1 (stereo unspecified) | inconclusive: -54.8% |
| O=C(NCc1ccccc1)c1ccc2nc(N3CCOCC3)sc2c1 | inconclusive: -40.1% |
| Cc1noc(C)c1S(=O)(=O)N1CCC(Cc2ccccc2)CC1 | inconclusive: -47.3% |
| COc1ccccc1NC(=O)CSc1ccc2nnc(-c3ccc(C)cc3)n2n1 | inconclusive: -42.7% |
| CC(C)[C@H](NS(=O)(=O)c1ccccc1)C(=O)OCC(=O)Nc1ccccc1Sc1ccccc1 | inconclusive: -59.8% |
| CCCC1OC23CCCCC2C(C#N)(C(=N)O3)C1(C#N)C#N (stereo unspecified) | inactive: -34.9% |
| CCOC(=O)C1=C(C)NC(=O)NC1c1cn(-c2ccccc2)nc1-c1cccs1 (stereo unspecified) | inactive: -24.8% |
| O=C(CN1CCN(C2CCCCC2)CC1)Nc1cccc2ccccc12 | inconclusive: -55.1% |
| N#C/C(=C(/O)c1cccc(F)c1)c1nc2ccccc2s1 | active: -69.7% |
| CC12CCC(c3c(C(=O)Nc4nccs4)nn(-c4ccccc4)c31)C2(C)C (stereo unspecified) | inconclusive: -55.2% |
| COc1ccc(/C=C/C(=O)c2ccc3c(c2)OCO3)cc1OC | inconclusive: -42.7% |
| C=CCn1c(C)cc(C(=O)CSc2nc3ccccc3[nH]2)c1C | active: -92.3% |
| Cc1ccc(NC(=O)Cn2c(=O)oc3cc(S(=O)(=O)N4CCC(C)CC4)ccc32)cc1Cl | inconclusive: -43.4% |
| c1ccc2oc(C3=NNC(=NC4CC4)SC3)cc2c1 | inconclusive: -43.3% |

| SMILES | activity change, negative = inhibition |
| --- | --- |
| Cc1ccc(O)c(C(=O)c2cnn(C(=O)Cc3csc(C)n3)c2)c1 | inconclusive: -54.2% |
| COc1cccc(C2C(=O)N(C3CCCCC3)CC(=O)N2Cc2ccc(Cl)cc2)c1 (stereo unspecified) | active: -68.2% |
| CC1CCN(CCC(=O)Nc2ccc3c(c2)CCC3)CC1 | active: -80.4% |
| O=C(Nc1ccc(S(=O)(=O)NCc2cccnc2)cc1)c1ccccc1Cl | inconclusive: -54.9% |
| CCc1nc2ccccc2c(=O)n1NC(=O)c1c(O)c2ccccc2n(CC)c1=O | inconclusive: -46.1% |
| CCN(CC)c1ccc(O)c(C=Nc2ccc(C)c(C)c2)c1 | inconclusive: -40.9% |
| CCCCCCCCCCSc1n[nH]c(NC(C)=O)n1 | inconclusive: -58.6% |
| O=C(Nc1ccc(Br)cc1)c1cccc(OC(=S)N2CCOCC2)c1 | active: -76.8% |
| N#CC(C#N)=Cc1cc2ccccc2nc1N1CCOCC1 | inactive: 84% |
| CCOC(=O)c1c(-c2ccc(-c3ccccc3)cc2)csc1NC(=O)c1cccc(N2C(=O)CCC2=O)c1 | inconclusive: -52.6% |
| COc1ccc(N2CCN(C(=O)c3cc4cc5ccc(Cl)cc5nc4o3)CC2)cc1 | inactive: 11.3% |
| CC(C)(C)c1ccc(-c2nnc3sc(-c4ccccn4)nn23)cc1 | inconclusive: -44.8% |
| COc1ccc(/C=C(/CC(=O)NCc2ccc(Cl)cc2)c2nc3ccccc3s2)cc1 | inconclusive: -43.6% |
| CCCNC(=O)N1[C@@H]2Cn3c(cccc3=O)[C@H]1[C@@H](C(=O)OC)[C@@H]2CO | inactive: 7.68% |
| Cc1cc(Cl)c(S(=O)(=O)N2CCSCC2)cc1OCC(=O)NC1CCCCC1 | active: -95.3% |
| CCCOc1ccc(-c2cc(C(F)(F)F)c(C#N)c(SCC(=O)O)n2)cc1 | inconclusive: -45.6% |
| Cc1cc(C)c(-n2c(C)cc(/C=C3/NC(=O)NC3=O)c2C)c(C)c1 | inconclusive: -47.2% |
| COc1ccccc1C(=O)Nc1cc(-c2ccc(C)cc2)no1 | inactive: 93.9% and inactive: 164% |
| Cc1sc2ncnc(N3CCN(Cc4ccccc4)CC3)c2c1-c1ccc(F)cc1 | inactive: -10.4% |
| NS(=O)(=O)c1ccc(CNC(=O)c2scc3c2CCCC3)cc1 | inactive: -29.3% |
